# Reference: paper PMC10804554
# Sequences of proteins named here, by UniProt entry; tags and fusion partners are left off. A change or cut given only in a name is not applied to a line headed by its entry. A line that says so, or that is headed by a name, gives the form on record, which may keep a tag or linker.
# UniProt Q00987: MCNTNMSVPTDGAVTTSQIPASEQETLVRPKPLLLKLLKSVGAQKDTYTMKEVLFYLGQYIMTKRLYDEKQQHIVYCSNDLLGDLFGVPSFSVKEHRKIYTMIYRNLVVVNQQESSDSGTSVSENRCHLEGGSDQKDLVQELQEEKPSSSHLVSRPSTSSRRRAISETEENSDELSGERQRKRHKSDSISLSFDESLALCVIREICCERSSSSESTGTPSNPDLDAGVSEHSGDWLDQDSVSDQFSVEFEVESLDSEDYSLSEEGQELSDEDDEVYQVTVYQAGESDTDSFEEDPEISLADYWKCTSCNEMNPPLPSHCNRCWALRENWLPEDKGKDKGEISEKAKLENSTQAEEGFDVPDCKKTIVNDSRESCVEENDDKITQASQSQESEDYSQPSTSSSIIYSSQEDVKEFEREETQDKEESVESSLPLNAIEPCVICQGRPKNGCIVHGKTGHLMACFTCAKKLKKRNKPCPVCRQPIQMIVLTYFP
# UniProt Q13315: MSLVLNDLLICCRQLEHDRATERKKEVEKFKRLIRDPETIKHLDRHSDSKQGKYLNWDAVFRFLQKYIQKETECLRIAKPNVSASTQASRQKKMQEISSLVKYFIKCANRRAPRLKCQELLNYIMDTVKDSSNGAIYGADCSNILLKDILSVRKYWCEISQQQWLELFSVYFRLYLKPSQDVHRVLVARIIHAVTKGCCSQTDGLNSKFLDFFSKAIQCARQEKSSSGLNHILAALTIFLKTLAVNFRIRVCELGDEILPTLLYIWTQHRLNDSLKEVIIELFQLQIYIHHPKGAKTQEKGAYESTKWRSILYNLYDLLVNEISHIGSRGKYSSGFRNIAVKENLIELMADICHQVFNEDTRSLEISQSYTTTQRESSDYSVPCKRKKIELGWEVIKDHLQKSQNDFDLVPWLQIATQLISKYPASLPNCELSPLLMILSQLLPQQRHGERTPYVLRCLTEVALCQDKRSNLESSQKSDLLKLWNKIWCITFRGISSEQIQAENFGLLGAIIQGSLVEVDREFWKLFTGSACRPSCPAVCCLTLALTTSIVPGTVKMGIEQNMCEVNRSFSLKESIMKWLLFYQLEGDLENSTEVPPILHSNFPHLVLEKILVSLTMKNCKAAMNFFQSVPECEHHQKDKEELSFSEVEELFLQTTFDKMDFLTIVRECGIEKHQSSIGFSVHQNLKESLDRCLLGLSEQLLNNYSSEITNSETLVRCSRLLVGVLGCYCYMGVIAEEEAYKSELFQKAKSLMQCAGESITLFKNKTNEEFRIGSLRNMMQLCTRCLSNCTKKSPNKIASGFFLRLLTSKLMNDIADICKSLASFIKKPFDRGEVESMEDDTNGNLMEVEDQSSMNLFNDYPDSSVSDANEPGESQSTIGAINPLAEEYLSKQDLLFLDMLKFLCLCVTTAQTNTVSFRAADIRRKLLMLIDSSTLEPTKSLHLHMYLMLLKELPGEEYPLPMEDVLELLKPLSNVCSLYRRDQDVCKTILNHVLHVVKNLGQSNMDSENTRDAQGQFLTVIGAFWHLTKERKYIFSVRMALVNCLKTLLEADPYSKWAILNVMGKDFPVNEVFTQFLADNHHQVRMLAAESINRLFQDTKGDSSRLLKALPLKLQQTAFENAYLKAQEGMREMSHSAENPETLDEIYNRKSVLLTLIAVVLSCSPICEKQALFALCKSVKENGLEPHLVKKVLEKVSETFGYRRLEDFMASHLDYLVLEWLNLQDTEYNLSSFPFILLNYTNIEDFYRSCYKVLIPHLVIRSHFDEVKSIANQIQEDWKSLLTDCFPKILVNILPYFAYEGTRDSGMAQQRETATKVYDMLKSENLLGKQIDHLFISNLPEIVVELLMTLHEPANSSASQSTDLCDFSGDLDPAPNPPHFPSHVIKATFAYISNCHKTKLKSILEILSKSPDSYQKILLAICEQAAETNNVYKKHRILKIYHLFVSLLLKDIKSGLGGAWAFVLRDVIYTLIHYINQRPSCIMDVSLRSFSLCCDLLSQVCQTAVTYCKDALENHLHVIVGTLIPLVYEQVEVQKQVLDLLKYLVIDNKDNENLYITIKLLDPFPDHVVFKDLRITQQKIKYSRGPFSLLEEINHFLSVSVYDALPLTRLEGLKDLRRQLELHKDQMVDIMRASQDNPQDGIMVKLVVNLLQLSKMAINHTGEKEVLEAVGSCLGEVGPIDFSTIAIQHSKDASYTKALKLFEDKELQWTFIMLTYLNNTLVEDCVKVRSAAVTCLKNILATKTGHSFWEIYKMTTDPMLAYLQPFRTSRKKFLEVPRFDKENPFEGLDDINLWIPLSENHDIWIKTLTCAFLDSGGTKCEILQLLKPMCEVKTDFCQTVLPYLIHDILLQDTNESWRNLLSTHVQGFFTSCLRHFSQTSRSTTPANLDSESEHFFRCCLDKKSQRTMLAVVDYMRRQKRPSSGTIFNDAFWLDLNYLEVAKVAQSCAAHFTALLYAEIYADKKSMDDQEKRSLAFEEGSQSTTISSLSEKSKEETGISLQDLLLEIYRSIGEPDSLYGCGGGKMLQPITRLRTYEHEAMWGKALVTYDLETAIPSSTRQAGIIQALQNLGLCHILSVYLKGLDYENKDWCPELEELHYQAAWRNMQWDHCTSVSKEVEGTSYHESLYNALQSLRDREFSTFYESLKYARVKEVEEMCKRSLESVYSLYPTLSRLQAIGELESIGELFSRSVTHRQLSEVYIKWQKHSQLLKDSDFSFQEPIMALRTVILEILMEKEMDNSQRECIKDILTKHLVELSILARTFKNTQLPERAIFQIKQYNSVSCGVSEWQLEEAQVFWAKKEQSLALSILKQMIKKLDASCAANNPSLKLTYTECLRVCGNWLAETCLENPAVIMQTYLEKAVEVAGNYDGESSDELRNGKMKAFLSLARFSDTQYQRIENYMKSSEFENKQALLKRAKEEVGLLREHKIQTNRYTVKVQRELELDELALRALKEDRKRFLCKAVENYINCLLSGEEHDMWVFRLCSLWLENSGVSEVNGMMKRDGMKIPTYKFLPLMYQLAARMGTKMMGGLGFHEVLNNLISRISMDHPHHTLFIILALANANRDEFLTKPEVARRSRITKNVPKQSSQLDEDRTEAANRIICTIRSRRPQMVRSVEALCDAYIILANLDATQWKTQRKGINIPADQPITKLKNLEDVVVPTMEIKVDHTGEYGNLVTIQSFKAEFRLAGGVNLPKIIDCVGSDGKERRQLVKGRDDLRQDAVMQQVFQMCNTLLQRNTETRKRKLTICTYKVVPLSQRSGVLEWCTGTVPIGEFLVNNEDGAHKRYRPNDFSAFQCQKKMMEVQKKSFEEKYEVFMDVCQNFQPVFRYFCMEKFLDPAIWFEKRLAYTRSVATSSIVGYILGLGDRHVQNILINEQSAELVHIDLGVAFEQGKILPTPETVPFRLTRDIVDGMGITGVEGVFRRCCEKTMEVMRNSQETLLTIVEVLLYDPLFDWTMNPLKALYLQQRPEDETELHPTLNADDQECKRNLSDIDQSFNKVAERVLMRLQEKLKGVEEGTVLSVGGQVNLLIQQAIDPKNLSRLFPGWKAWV
# ATM(1–2667) with the S1981A mutation (Q13315, form named): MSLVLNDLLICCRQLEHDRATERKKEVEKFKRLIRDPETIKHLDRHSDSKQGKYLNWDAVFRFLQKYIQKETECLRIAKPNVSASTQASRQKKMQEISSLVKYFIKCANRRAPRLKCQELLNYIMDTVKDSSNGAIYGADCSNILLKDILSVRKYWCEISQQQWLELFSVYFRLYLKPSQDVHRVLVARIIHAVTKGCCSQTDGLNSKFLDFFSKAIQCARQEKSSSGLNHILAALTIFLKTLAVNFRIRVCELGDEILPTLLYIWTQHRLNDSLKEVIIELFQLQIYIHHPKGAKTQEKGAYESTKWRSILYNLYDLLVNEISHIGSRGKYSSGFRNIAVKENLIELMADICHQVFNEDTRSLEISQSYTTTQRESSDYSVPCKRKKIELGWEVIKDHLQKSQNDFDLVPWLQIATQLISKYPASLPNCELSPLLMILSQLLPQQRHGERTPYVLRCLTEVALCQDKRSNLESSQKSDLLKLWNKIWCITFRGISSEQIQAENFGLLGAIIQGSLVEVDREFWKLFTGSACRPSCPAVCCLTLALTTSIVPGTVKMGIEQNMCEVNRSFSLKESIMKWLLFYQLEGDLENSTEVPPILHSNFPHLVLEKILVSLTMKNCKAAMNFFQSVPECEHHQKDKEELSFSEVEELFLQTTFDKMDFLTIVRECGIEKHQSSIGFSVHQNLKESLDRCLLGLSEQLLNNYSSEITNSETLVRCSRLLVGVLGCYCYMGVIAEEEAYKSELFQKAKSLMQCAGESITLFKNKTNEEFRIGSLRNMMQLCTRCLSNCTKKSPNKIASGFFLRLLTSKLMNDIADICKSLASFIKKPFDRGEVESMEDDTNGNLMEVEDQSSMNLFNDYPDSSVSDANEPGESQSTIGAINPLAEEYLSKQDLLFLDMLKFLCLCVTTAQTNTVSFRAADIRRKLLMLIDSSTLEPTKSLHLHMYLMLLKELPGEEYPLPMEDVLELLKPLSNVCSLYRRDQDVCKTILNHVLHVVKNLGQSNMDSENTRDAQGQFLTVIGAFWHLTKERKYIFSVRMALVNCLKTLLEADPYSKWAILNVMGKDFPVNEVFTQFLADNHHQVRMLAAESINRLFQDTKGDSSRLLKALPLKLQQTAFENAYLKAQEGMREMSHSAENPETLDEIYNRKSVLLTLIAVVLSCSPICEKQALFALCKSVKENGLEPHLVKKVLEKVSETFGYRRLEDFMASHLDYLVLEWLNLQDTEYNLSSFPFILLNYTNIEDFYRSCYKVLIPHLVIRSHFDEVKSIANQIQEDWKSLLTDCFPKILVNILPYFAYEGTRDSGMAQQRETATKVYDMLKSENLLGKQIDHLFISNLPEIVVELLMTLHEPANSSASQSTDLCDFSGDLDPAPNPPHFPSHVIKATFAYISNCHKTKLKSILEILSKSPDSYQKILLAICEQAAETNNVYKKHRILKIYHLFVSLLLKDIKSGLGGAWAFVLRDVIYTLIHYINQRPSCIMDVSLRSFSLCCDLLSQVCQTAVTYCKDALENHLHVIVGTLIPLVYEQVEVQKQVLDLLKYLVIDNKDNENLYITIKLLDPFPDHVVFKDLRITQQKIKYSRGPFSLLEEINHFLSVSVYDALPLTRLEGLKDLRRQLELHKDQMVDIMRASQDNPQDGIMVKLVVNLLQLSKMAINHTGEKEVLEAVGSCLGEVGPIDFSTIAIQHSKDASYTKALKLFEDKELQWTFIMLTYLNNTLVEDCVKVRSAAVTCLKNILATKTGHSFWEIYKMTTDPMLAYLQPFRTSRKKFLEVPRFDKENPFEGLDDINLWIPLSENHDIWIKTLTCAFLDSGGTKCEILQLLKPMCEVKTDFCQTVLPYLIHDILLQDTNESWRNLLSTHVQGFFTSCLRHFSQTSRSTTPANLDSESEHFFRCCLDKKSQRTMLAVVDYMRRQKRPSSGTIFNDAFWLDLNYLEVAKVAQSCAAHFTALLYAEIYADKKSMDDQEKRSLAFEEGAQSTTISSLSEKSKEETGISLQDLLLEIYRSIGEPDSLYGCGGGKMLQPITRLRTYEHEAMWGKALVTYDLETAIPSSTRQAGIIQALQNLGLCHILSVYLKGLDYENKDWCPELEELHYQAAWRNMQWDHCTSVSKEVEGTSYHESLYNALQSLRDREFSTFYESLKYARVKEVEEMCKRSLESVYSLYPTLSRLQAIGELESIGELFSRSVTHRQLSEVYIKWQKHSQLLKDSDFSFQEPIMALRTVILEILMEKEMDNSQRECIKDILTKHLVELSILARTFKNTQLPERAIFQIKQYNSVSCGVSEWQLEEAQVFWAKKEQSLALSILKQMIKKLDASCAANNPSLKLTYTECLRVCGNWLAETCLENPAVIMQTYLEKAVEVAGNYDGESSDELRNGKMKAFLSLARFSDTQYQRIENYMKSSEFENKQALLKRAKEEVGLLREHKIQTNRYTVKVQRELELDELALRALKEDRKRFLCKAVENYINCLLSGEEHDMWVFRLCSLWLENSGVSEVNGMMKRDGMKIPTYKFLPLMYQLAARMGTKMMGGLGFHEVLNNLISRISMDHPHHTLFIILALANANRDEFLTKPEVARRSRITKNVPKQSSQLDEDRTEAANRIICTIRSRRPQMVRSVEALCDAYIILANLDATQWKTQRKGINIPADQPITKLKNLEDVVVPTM
# These are yes or no findings as the source states them, for the method shown. In cells and extracts the contact can be indirect. Some binding calls cover weakened binding; strength is not graded here.
# Biological target: MDM2 in AT5 BiVA cells (UniProt Q00987)
# Assay: proximity ligation; PLA on fixed AT5 BiVA cells (ATM-null) transfected with ATM constructs, ATM with MDM2; normal conditions (DMSO) or doxorubicin; PLA dots counted per cell
row,Substance,binding
1,ATM(1–2667) (from UniProt Q13315 1-2667) (domain or fragment),no binding
2,ATM(1–2057) (from UniProt Q13315 1-2057) (domain or fragment),no binding
3,ATM(1–2667) with the S1981A mutation (from UniProt Q13315 1-2667) (domain or fragment),no binding
4,ATM(1–2667) with the phosphomimetic S1981D mutation (from UniProt Q13315 1-2667) (domain or fragment),binds
